Laboratory results taken from US7312188B2 (priority 2003, dated 2007).

Experiments:
[1] = general procedure: Fmoc solid-phase peptide synthesis; Wang resin; 2-chlorotrityl chloride resin (Clt resin); DIPCDI/DMAP (loading of Wang resin); conditions: whole synthesis; for final HPLC purity: analytical HPLC
[2] = peptide synthesis; conditions: coupling step
[3] = general procedure: Fmoc solid-phase peptide synthesis; Fmoc-NH-C6H4-CO-Clt resin; DIPCDI/DMAP (loading of Wang resin); conditions: whole synthesis

| Substance | final HPLC purity [1] [%] | isolated yield [1] [%] | other results |
| --- | --- | --- | --- |
| H-Gln-Val-Leu-Pns-Asp-Ala-Gly-Phe-OH | >98 |  | isolated yield ([1]; run 1): 47%; isolated yield ([1]; run 2): 68% |
| H-Glu-Ile-Leu-Pns-Asp-Ala-Glu-Phe-OH | >98 | 68 |  |
| H-Glu-Leu-Leu-Pns-Asp-Ala-Glu-Phe-OH | >98 | 58 |  |
| H-Glu-Met-Leu-Pns-Asp-Ala-Glu-Phe-OH | >98 | 60 |  |
| H-Glu-Phe-Leu-Pns-Asp-Ala-Glu-Phe-OH (DAEF; N-terminal Glu-Val-Leu-Apns; printed: Asp-Ala-Glu-Phe-) | >98 | 58 |  |
| H-Glu-Val-Asn-Nst-Asp-Ala-Glu-Phe-OH | >98 | 52 |  |
| H-Glu-Val-Asn-Pns-Asp-Ala-Glu-Phe-OH | >98 | 73 |  |
| H-Glu-Val-Asp-Pns-Asp-Ala-Glu-Phe-OH | >98 | 64 |  |
| H-Glu-Val-Gln-Pns-Asp-Ala-Glu-Phe-OH | >98 | 63 |  |
| H-Glu-Val-Glu-Pns-Asp-Ala-Glu-Phe-OH | >98 | 48 |  |
| H-Glu-Val-Gly-Pns-Asp-Ala-Glu-Phe-OH | >98 | 48 |  |
| H-Glu-Val-Leu-Apns-Ala-Ala-Glu-Phe-OH (AFEF; N-terminal Glu-Val-Leu-Pns; printed: Ala-Phe-Glu-Phe-) | >98 | 36 |  |
| H-Glu-Val-Leu-Apns-Asn-Ala-Glu-Phe-OH (AEEF; N-terminal Glu-Val-Leu-Pns; printed: Ala-Glu-Glu-Phe-) | >98 | 63 |  |
| H-Glu-Val-Leu-Apns-Asp-Ala-Glu-Phe-OH | >98 | 41 |  |
| H-Glu-Val-Leu-Apns-Dmt-Ala-Glu-Phe-OH (DALF; N-terminal Glu-Val-Leu-Pns; printed: Asp-Ala-Leu-Phe-) | >98 | 28 |  |
| H-Glu-Val-Leu-Apns-Gln-Ala-Glu-Phe-OH (DAVF; N-terminal Glu-Val-Leu-Pns; printed: Asp-Ala-Val-Phe-) | >98 | 63 |  |
| H-Glu-Val-Leu-Apns-Glu-Ala-Glu-Phe-OH (DAQF; N-terminal Glu-Val-Leu-Pns; printed: Asp-Ala-Gln-Phe-) | >98 | 59 |  |
| H-Glu-Val-Leu-Pns-Ala-Ala-Glu-Phe-OH | >98 | 43 |  |
| H-Glu-Val-Leu-Pns-Ala-Glu-Glu-Phe-OH | >98 | 58 |  |
| H-Glu-Val-Leu-Pns-Ala-Leu-Glu-Phe-OH | >98 | 42 |  |
| H-Glu-Val-Leu-Pns-Ala-Phe-Glu-Phe-OH | >98 | 31 |  |
| H-Glu-Val-Leu-Pns-Ala-Val-Glu-Phe-OH (DAFF; N-terminal Glu-Val-Leu-Pns; printed: Asp-Ala-Phe-Phe-) | >98 | 27 |  |
| H-Glu-Val-Leu-Pns-Asn-Ala-Glu-Phe-OH | >98 | 44 |  |

| Substance | final HPLC purity [1] [%] | isolated yield [1] [%] | other results |
| --- | --- | --- | --- |
| H-Glu-Val-Leu-Pns-Asp-Ala-Gln-Phe-OH | >98 | 77 |  |
| H-Glu-Val-Leu-Pns-Asp-Ala-Glu-Gly-OH (DAEG; N-terminal Glu-Val-Leu-Pns; printed: Asp-Ala-Glu-Gly-) | >98 | 35 |  |
| H-Glu-Val-Leu-Pns-Asp-Ala-Glu-OH | >98 | 37 |  |
| H-Glu-Val-Leu-Pns-Asp-Ala-Glu-Phe-OH | >98 | 39 |  |
| H-Glu-Val-Leu-Pns-Asp-Ala-Gly-Phe-OH | >98 | 40 |  |
| H-Glu-Val-Leu-Pns-Asp-Ala-Phe-Phe-OH | >98 | 49 |  |
| H-Glu-Val-Leu-Pns-Asp-Ala-Val-Phe-OH | >98 | 27 |  |
| H-Glu-Val-Leu-Pns-Asp-Gly-Glu-Phe-OH (DGEF; N-terminal Glu-Val-Leu-Pns; printed: Asp-Gly-Glu-Phe-) | >98 | 44 |  |
| H-Glu-Val-Leu-Pns-Asp-OH | >98 | 40 |  |
| H-Glu-Val-Leu-Pns-Dmt-Ala-Glu-Phe-OH | >98 | 21 |  |
| H-Glu-Val-Leu-Pns-Glu-Ala-Glu-Phe-OH | >98 | 36 |  |
| H-Glu-Val-Leu-Pns-Gly-Ala-Glu-Phe-OH | >98 | 63 |  |
| H-Glu-Val-Leu-Pns-NH-Bzl | >98 |  | step yield [2]: 23%; isolated yield [3]: 56% |
| H-Glu-Val-Leu-Pns-OH (GAEF; N-terminal Glu-Val-Leu-Pns; printed: Gly-Ala-Glu-Phe-) | >98 | 39 |  |
| H-Glu-Val-Lys-Pns-Asp-Ala-Glu-Phe-OH (EAEF; N-terminal Glu-Val-Leu-Pns; printed: Glu-Ala-Glu-Phe-) | >98 | 88 |  |
| H-Glu-Val-Met-Pns-Asp-Ala-Glu-Phe-OH (AAEF; N-terminal Glu-Val-Leu-Pns; printed: Ala-Ala-Glu-Phe-) | >98 | 51 |  |
| H-Gly-Val-Leu-Pns-Asp-Ala-Glu-Phe-OH | >98 | 78 |  |
| H-Leu-Pns-Asp-Ala-Glu-Phe-OH | >98 | 49 |  |
| H-Pns-Asp-Ala-Glu-Phe-OH (DAEG; N-terminal Glu-Val-Leu-Pns; printed: Asp-Ala-Glu-Gly-) | >98 | 49 |  |
| H-Val-Leu-Pns-Asp-Ala-Glu-Phe-OH (DGEF; N-terminal Glu-Val-Leu-Pns; printed: Asp-Gly-Glu-Phe-) | >98 | 61 |  |
| H-homoGlu-Val-Leu-Pns-Asp-Ala-Gly-Phe-OH | >98 |  | isolated yield ([1]; run 1): 22%; isolated yield ([1]; run 2): 37% |
| glt-Val-Leu-Pns-Asp-Ala-Gly-Phe-OH | >98 | 22 |  |
| β-ODap-Val-Leu-Pns-Asp-Ala-Gly-Phe-OH | >98 |  | isolated yield ([1]; run 1): 18%; isolated yield ([1]; run 2): 19% |

For part of these data: The same purity stands for every peptide and may come from a single statement.
